# Experimental data: PMC9413144, “Similar 5F-APINACA Metabolism between CD-1 Mouse and Human Liver Microsomes Involves Different P450 Cytochromes” (Metabolites, 2022)
# Columns and labels:
# [1] = test system: pooled human liver microsomes (HLM150); assay: Steady-state kinetics for 5F-APINACA metabolism by pooled human liver microsomes; type: in vitro ADME
# Experimental: (§1) The in vitro 5F-APINACA analyses relied on reactions with human liver microsomes 150 (HLM150) as a model for the average adult human liver and CD-1 mouse liver microsomes as the standard for SCB studies. In a 96-half-well microplate, reaction conditions included human or mouse liver microsomes in 100 mM potassium phosphate buffer pH 7.4, 0.1% methanol (co-solvent), and 5F-APINACA concentrations ranging from 0 to 250 µM. The microplates were preincubated for 15 min at 37 °C with shaking at 350 rpm using a BMG Labtech THERMOstar incubator (Ortenberg, Germany). The addition of an NADPH-regenerating system (4 U/mL glucose-6-phosphate dehydrogenase, 12 mM glucose 6-phosphate, 12 mM MgCl2, 4 mM NADP^+) initiated the reaction. Reactions were quenched by adding an equal volume of ice-cold acetonitrile containing an internal standard (2 μM acenocoumarol final). Samples were chilled on ice for 10 min to optimize precipitation of proteins in phosphate buffer. […] Standards for metabolite quantifications were prepared with human or mouse liver microsomes in 100 mM potassium phosphate buffer pH 7.4, 0.1% methanol (co-solvent), and 5OH-APINACA concentrations ranging from 0 to 15 µM. […] The composition of reactions was determined by liquid chromatographic analysis involving detection of analytes via UV/visible absorbance and mass spectroscopy (Section 2.5). […]
# [2] = test system: CD-1 mouse liver microsomes; assay: Steady-state kinetics for 5F-APINACA metabolism by CD-1 mouse liver microsomes; type: in vitro ADME
# Experimental: as §1
# [3] = Combined adamantyl hydroxylation pathway (5F-APINACA-OH + 5F-APINACA-(OH)2 rates combined)
# [4] = formation of the metabolite from 5F-APINACA, 0.1 mg/mL protein, traditional kinetic models
Molecule,"Model (most probable kinetic mechanism) [1, 3]","Model (most probable kinetic mechanism) [2, 3]","Model (most probable kinetic mechanism) [1, 4]","Model (most probable kinetic mechanism) [2, 4]"
N-(1-adamantyl)-1-(5-pentyl)-1H-indazole-3-carboxamide [5F-APINACA],Substrate inhibition,Substrate inhibition,–,–
O=C(NC12CC3CC(CC(C3)C1)C2)c1nn(CCCCCO)c2ccccc12 [5OH-APINACA],–,–,Michaelis–Menten,Hill
